# Assay results: PubChem BioAssay AID445 (National Center for Advancing Translational Sciences (NCATS), 2006)
# This is one part of the list. Shown are side measurements of this screen, not its main read-out; they come without a call. Compounds called inactive in the main read-out are mostly missing here. The note in brackets gives the kind of curve behind each potency; many fits are weak.
# Assay: IkB Signaling
# Details: ABC-DLBCL IkBa-CBG/CBR dual luciferase ratio (green luciferase fused to IkBa over red control in OCI-Ly3 lymphoma cells), 4 h
# From the text: NIH Molecular Libraries Screening Centers Network [MLSCN]
# NIH Chemical Genomics Center [NCGC]
# Nuclear factor kappa-B (NF-kappa-B) plays an important role in normal B cell development and survival. Diffuse large B cell lymphoma (DLBCL) is the most commonly observed type of non-Hodgkin's lymphoma. Gene expression analysis has identified an activated B cell-like subtype of DLBCL (ABC-DLBCL) which expresses known NF-kappa-B target genes. […] However, targets upstream of IKK have been largely unexplored and so nodes upstream of IKK in the NF-kappa-B pathway remain untested due to the lack of chemical probes.
# A cell-sensor assay for I-kappa-B-alpha stabilization was developed with NIH investigator Dr. R. Eric Davis in Dr. Louis M. Staudt's laboratory. The assay uses green (CBG68) and red (CBR) emitting beetle luciferases [Chroma-Glo(TM) developed by Promega Corp.] where the green luciferase is fused to I-kappa-B-alpha and the red luciferase is present in its native state. Both luciferase genes are stably present in the OCI-Ly3 human ABC DLBCL cell line, but their expression is under the control of tetracycline-inducible promoters. Following the addition of doxycycline to induce expression of the luciferases, the green luminescence in control cultures rises only slowly because the CBG fusion partner I-kappa-B-alpha is targeted by IKK activity for rapid degradation. In contrast, green luminescence rises rapidly in the presence of proteasome inhibitors or IKK inhibitors. The rise in red luminescence of CBR is not affected by proteasome or IKK inhibitors, and serves as normalization for cell number and nonspecific effects. Compounds were screened as a concentration-titration series that ranged from 57 uM to 0.7 nM.
# NCGC Assay Protocol Summary:
# Cells were seeded in 1536-well plates at 5000 cells/3ul in IMDM medium containing 0.5% FBS, w/o phenol red, L-glutamine, 25 mM HEPES, 3 mg/ml sodium bicarbonate. After centrifugation for 1 min. at 1000 rpm, 23 nl of compounds or DMSO were delivered to each well using a pin tool. Then 1ul 80ng/ml doxycycline was dispensed into white solid 1536-well plates and the plates were incubated at 37C/5% C02 in a cell incubator for 4 hrs. Then 4 ul Chroma-Glo luminescent substrate mix (Promega) was added to each well. The plate was incubated at R.T. for 10-15 min. The plates were measured on a ViewLux plate reader for green luminescence (540/20 nm filter) and red luminescence (618/8 nm filter). The green and red luminescent signals were corrected for red and green luminescence filter overlap using previously determined filter calibration constants (determined using the procedure outlined in the Promega Technical Manual). The %Activity was determined from the ratio of corrected green/red luminescent values. Green luminescent and ratio %Activity was determined by normalizing to the difference in signal between basal cells (0% Activity) and cells incubated with 10 uM of the proteasome inhibitor MG-132 (100% Activity). Red luminescent %Activity was normalized to the difference between red luminesence in basal cells (0%Activity) and zero luminescence (-100% Activity).
# Concentration-response curves were fitted to the signals arising from the green luminescence (I-kappa-B-alpha-luciferase fusion; IkB-luc) and the red luminescence (unfused luciferase; luc) as well as the calculated ratio. The concentration-effect curves were then classified based on curve quality (r2), response magnitude and degree of measured activity. Compounds were then categorized based on their concentration-response curves for all three datasets (Ikb-luc, luc and ratio).
# Keywords: IKK, I-kappa-B, IkB, IkBa, cytotoxicity, luminescence, MLSMR, MLSCN, NIH Roadmap, qHTS, NCGC
# [1] = measured here: control luc red channel unless noted
smiles,measurement,setting,value
Cc1cccc(N2CCN(C(=O)Nc3ccc(F)cc3)CC2C)c1 (centres undefined),AC50,[1],"31.6 µM [falling, single point]"
Cc1ccccc1NC(=O)Nc1nnc(N(C)Cc2ccccc2)s1,AC50,[1],"39.8 µM [falling, single point]"
O=c1[nH]c2c(s1)C(c1ccccc1)C1C3CCC(C3)C1S2 (centres undefined),AC50,[1],"25.1 µM [falling, partial curve]"
Cc1ccc(N2CCN(C(=O)c3nn(C)c4c3CS(=O)(=O)c3ccccc3-4)CC2C)cc1 (centres undefined),AC50,[1],"12.6 µM [falling, partial curve]"
O=C(c1cnn(-c2nc3ccccc3s2)c1)c1ccccc1O,AC50,[1],"5.01 µM [falling, partial curve]"
COc1ccc(-n2cc3c(c2-c2cccc(Br)c2)c(=O)n(C)c(=O)n3C)cc1OC,AC50,[1],"25.1 µM [falling, single point]"
COc1cccc(NC(=O)Cn2c(=O)n(Cc3ccccc3)c(=O)c3c4c(sc32)CN(C(C)=O)CC4)c1,AC50,[1],"39.8 µM [falling, single point]"
CCCCc1ccc(NC(=O)Cn2cnc3c2c(=O)n(C)c(=O)n3C)cc1,AC50,[1],"10 µM [falling, partial curve]"
Cc1cc(C)cc(C(=O)Nc2ccc(-c3cn4cccnc4n3)cc2)c1,AC50,[1],"20 µM [rising, partial curve]"
CC(=O)c1ccc(NC(=O)c2cc3sccc3n2Cc2ccc(Cl)cc2)cc1,AC50,[1],"25.1 µM [falling, partial curve]"
Cc1ccc(N(CC(=O)NCCSc2ccccc2)S(=O)(=O)c2ccc(F)cc2)cc1,AC50,[1],"15.8 µM [falling, partial curve]"
O=C(COc1ccc(Cl)cc1)NCC(c1ccco1)S(=O)(=O)c1ccc(F)cc1 (centres undefined),AC50,[1],"5.01 µM [falling, full curve]"
COc1ccc(CNC(=O)c2cc3cccc4c3n2CC(C)S4)cc1OC (centres undefined),AC50,[1],"31.6 µM [falling, single point]"
Cc1ccc(CNS(=O)(=O)c2ccc3[nH]c4c(c3c2)CCCCC4)cc1,AC50,[1],"39.8 µM [falling, partial curve, poor fit]"
Cc1ccc(C)n1-n1c(C)nc2sc(-c3ccccc3)cc2c1=O,AC50,[1],"10 µM [falling, partial curve]"
COCCCn1c(SCC(=O)Nc2ccc(F)cc2)nc2c(sc3ccccc32)c1=O,AC50,[1],"3.16 µM [rising, partial curve, poor fit]"
Cc1cccc(NC(=O)C2CCCN(S(=O)(=O)c3ccc4c(c3)CCCC(=O)N4)C2)c1 (centres undefined),AC50,[1],"25.1 µM [falling, partial curve]"
COc1ccc(Cl)cc1NC(=O)Cn1nc(C(F)(F)F)c2c1CCCC2,AC50,[1],"25.1 µM [falling, partial curve]"
CC(=O)Nc1c(C)nn(-c2ccccc2)c1N1CCC(C(=O)Nc2ccccc2C(F)(F)F)CC1,AC50,[1],"5.01 µM [rising, full curve, poor fit]"
CC(C)c1ccc2c(c1)c(SC(C)(C)C)c(CC(C)(C)C(=O)O)n2Cc1ccc(Cl)cc1,AC50,[1],"6.31 µM [falling, partial curve]"
Cc1cc(C)c(NC(=O)CSC2=Nc3ccccc3C3=NC(CC(=O)NCc4cccs4)C(=O)N23)c(C)c1 (centres undefined),AC50,[1],"15.8 µM [falling, partial curve]"
COc1ccc(C)cc1-n1nnc(S(=O)(=O)c2ccc(C)cc2)c1C,AC50,[1],"25.1 µM [falling, partial curve, poor fit]"
COc1ccc(CNc2oc(/C=C/c3cc(OC)c(OC)c(OC)c3)nc2C#N)cc1,AC50,[1],"12.6 µM [falling, partial curve]"
Cc1nn(-c2ccccc2)c2[nH]c(=O)c(CNc3ccc4c(c3)OCCO4)cc12,AC50,[1],"39.8 µM [falling, single point]"
Cc1cccn2c(=O)c(C(=O)NC(C)c3ccccc3)c(O)nc12 (centres undefined),AC50,[1],"15.8 µM [falling, partial curve]"
Cc1sc2ncnc(-n3cnc4ccccc43)c2c1C,AC50,[1],"31.6 µM [falling, partial curve]"
CCOC(=O)c1cc(-c2ccccc2)n(CC(=O)Nc2ccccc2OCC)c1C,AC50,[1],"3.98 µM [rising, partial curve]"
Fc1ccc(-c2csc(=Nc3cccc(C(F)(F)F)c3)n2Cc2ccc3c(c2)OCO3)cc1,AC50,[1],"5.01 µM [falling, partial curve, poor fit]"
COc1ccc(-c2nc(CCNC(=O)c3ccccc3)cs2)cc1OC,AC50,[1],"1.58 µM [rising, full curve]"
Cc1cccc(C)c1NC(=O)CCCn1c(=O)c2cccn2c2ccccc21,AC50,[1],"39.8 µM [falling, single point]"
CCOC(=O)c1c(S(=O)(=O)NCC(=O)Nc2ccc(C(C)=O)cc2)c(C)n(C)c1C,AC50,[1],"1.26 µM [rising, full curve]"
Cc1ccc(Cl)cc1-n1ncc2c(Nc3ccc4c(c3)OCCO4)ncnc21,AC50,[1],"39.8 µM [falling, single point]"
CCc1ccc(NC(=O)c2ccc(Cn3nc(N4CCN(c5ccccc5)CC4)ccc3=O)o2)cc1,AC50,[1],"39.8 µM [falling, single point]"
O=C(c1ccc2c(c1)N(Cc1c(F)cccc1Cl)C(=O)c1ccccc1S2)N1CCCC1,AC50,[1],"20 µM [falling, partial curve]"
Cc1ccnc(Nc2nc3ccccc3o2)n1,AC50,[1],"15.8 µM [falling, partial curve]"
CC(=O)N1CCCC1c1nc2ccccc2n1Cc1ccc(F)cc1 (centres undefined),AC50,[1],"15.8 µM [falling, single point]"
CCC(C)c1ccccc1OCC(=O)Nc1ccc(S(=O)(=O)Nc2cc(C)on2)cc1 (centres undefined),AC50,[1],"39.8 µM [falling, single point]"
Cc1nn(-c2nc3ccccc3s2)c(C)c1Oc1ccccc1O,AC50,[1],"20 µM [falling, partial curve]"
O=C(Nc1cc(C(F)(F)F)ccc1N1CCOCC1)C1Cc2ccccc2CN1C(=O)c1ccco1 (centres undefined),AC50,[1],"20 µM [falling, partial curve]"
COc1cc(NS(=O)(=O)c2ccc(Br)cc2)c(OC)cc1NC(=O)c1ccco1,AC50,[1],"31.6 µM [falling, single point]"
Cc1ccc(NC(=O)Cn2c(=O)n(CCC(C)C)c(=O)c3cccnc32)cc1C,AC50,[1],"0.0398 µM [falling, full curve, poor fit]"
CCC(C(=O)NCCC(C)C)N(C(=O)Cn1nnc(-c2ccc(C)cc2)n1)c1cccc(O)c1 (centres undefined),AC50,[1],"15.8 µM [falling, partial curve]"
COc1ccc(Cl)cc1NC(=O)Cn1c(=O)n(Cc2ccc(F)cc2)c(=O)c2cccnc21,AC50,[1],"20 µM [falling, partial curve]"
CC1CN(C(=O)N2CCC(C(=O)NCc3ccccc3F)CC2)c2cc(Cl)ccc2O1 (centres undefined),AC50,[1],"25.1 µM [falling, partial curve]"
COc1ccccc1N1CCN(C(=O)Cn2c(=O)nc(-c3ccccc3)c3ccccc32)CC1,AC50,[1],"25.1 µM [falling, single point]"
COc1cc2c(cc1OC)C(c1ccccc1)N(C(=O)c1ccco1)CC2 (centres undefined),AC50,[1],"1 µM [rising, full curve, poor fit]"
O=C(O)c1cccc(OCc2ccccc2Cl)c1,AC50,[1],"10 µM [falling, partial curve]"
O=C(CCC1COc2ccccc2O1)Nc1ccc(Cl)cn1 (centres undefined),AC50,[1],"7.94 µM [falling, full curve]"
Oc1ccccc1-c1nc(NCC2CCCO2)c2ccccc2n1 (centres undefined),AC50,[1],"12.6 µM [falling, partial curve]"
CCOC(=O)c1cccc(NC(=O)c2cc(C)nc3c2c(C)nn3-c2ccc(C)cc2)c1,AC50,[1],"12.6 µM [falling, partial curve]"
COc1ccc(-c2onc(C)c2-c2ccc(C(=O)OC(C)C)o2)c(O)c1,AC50,[1],"31.6 µM [falling, single point]"
Clc1ccc(NCc2nncn2-c2ccccc2)cc1,AC50,[1],"20 µM [falling, partial curve]"
CCc1ccccc1S(=O)(=O)Cc1ccc(C(=O)N2CCN(c3ccccc3OC)CC2)o1,AC50,[1],"12.6 µM [falling, partial curve]"
Cc1cc(C)cc(NC(=O)C(=O)NCC(c2cccnc2)N2CCOCC2)c1 (centres undefined),AC50,[1],"25.1 µM [falling, single point]"
COc1cccc(NC(=O)N2CCN(c3cccc(C)c3C)CC2)c1,AC50,[1],"25.1 µM [falling, partial curve]"
CN1C(=O)c2ccccc2Sc2ccc(NC(=O)N3CCN(c4ccc(F)cc4)CC3)cc21,AC50,[1],"10 µM [falling, partial curve]"
COc1ccc(-c2nc(S(=O)(=O)c3ccccc3)c(N3CCC(C)CC3)o2)cc1,AC50,[1],"7.94 µM [rising, single point]"
O=C(CN1CCN(c2ccccn2)CC1)N(c1ccccc1)c1ccc2ccccc2c1,AC50,[1],"39.8 µM [falling, single point]"
CCOc1ccc(CNC(=O)c2cc3cc(S(=O)(=O)N4CCCCC4)ccc3n2C)cc1,AC50,[1],"0.251 µM [falling, full curve]"
Oc1ccc(NCc2ccccc2OCc2ccccc2)cc1,AC50,measured here: IkB-luc green channel,"25.1 µM [rising, single point]"
same,AC50,measured here: control luc red channel,"25.1 µM [falling, partial curve]"
COc1ccc(C(=O)NCCc2csc(-c3ccc(Cl)cc3)n2)c(OC)c1,AC50,[1],"10 µM [falling, partial curve]"
CSc1ccc(CCNC(=O)CN2C(=O)COc3ccc(S(=O)(=O)N4CCCCCC4)cc32)cc1,AC50,[1],"31.6 µM [falling, single point]"
Cc1cnc(NC(=O)CSc2ncc(-c3ccccc3)n2Cc2ccco2)s1,AC50,[1],"12.6 µM [falling, partial curve]"

# 3 neighbouring entries out of the list so far, for reference:
smiles,measurement,setting,value
O=C(c1cnn(-c2nc3ccccc3s2)c1)c1ccccc1O,AC50,[1],"5.01 µM [falling, partial curve]"
COc1ccc(-n2cc3c(c2-c2cccc(Br)c2)c(=O)n(C)c(=O)n3C)cc1OC,AC50,[1],"25.1 µM [falling, single point]"
COc1cccc(NC(=O)Cn2c(=O)n(Cc3ccccc3)c(=O)c3c4c(sc32)CN(C(C)=O)CC4)c1,AC50,[1],"39.8 µM [falling, single point]"
